Some of the results follow.
Tests used:
Test in all cases: glycan array binding signal (z-score within array); higher = stronger binding
Conditions in all cases: glycan notation: IUPAC condensed, linker removed
GlcNAc(b1-4)GlcNAc = biological target: GlcNAc(b1-4)GlcNAc
In short: (§1)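 Glycan array data were curated from 3228 arrays in the Consortium for Functional Glycomics database and kept only where the protein sequence was available. Glycan names were converted to IUPAC-condensed notation, and columns mapping to the same glycan were averaged. The binding signal is a within-array Z-score, averaged across arrays of the same protein sequence at different concentrations or buffers and across linkers. Negative Z-scores can be read as non-binding.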

[1] = biological target: GlcNAc(b1-4)GlcNAc(b1-4)GlcNAc
In short: as §1

[2] = biological target: GlcNAc(b1-4)GlcNAc(b1-4)GlcNAc(b1-4)GlcNAc(b1-4)GlcNAc
In short: as §1

[3] = biological target: GlcNAc(b1-4)GlcNAc(b1-4)GlcNAc(b1-4)GlcNAc(b1-4)GlcNAc(b1-4)GlcNAc
In short: as §1

[4] = biological target: GlcNAc(b1-4)[GlcNAc(b1-6)]GalNAc
In short: as §1

[5] = biological target: GlcNAc(b1-6)Gal(b1-4)GlcNAc
In short: as §1

GlcNAc(b1-6)GalNAc = biological target: GlcNAc(b1-6)GalNAc
In short: as §1

GlcNAc3Prop(b1-4)GlcNAc = biological target: GlcNAc3Prop(b1-4)GlcNAc
In short: as §1

[6] = biological target: GlcNAc6S(b1-3)Gal(b1-4)GlcNAc
In short: as §1

Kdn(a2-3)Gal(b1-3)GalNAc = biological target: Kdn(a2-3)Gal(b1-3)GalNAc
In short: as §1

Kdn(a2-3)Gal(b1-3)GlcNAc = biological target: Kdn(a2-3)Gal(b1-3)GlcNAc
In short: as §1

Kdn(a2-3)Gal(b1-4)Glc = biological target: Kdn(a2-3)Gal(b1-4)Glc
In short: as §1

Kdn(a2-3)Gal(b1-4)GlcNAc = biological target: Kdn(a2-3)Gal(b1-4)GlcNAc
In short: as §1

[7] = biological target: Kdn(a2-3)Gal(b1-4)[Fuc(a1-3)]GlcNAc
In short: as §1

Kdn(a2-6)Gal(b1-4)GlcNAc = biological target: Kdn(a2-6)Gal(b1-4)GlcNAc
In short: as §1

[8] = biological target: Man(a1-2)Man(a1-2)Man(a1-3)Man
In short: as §1

[9] = biological target: Man(a1-2)Man(a1-2)Man(a1-6)[Man(a1-3)]Man
In short: as §1

Man(a1-2)Man(a1-3)Man = biological target: Man(a1-2)Man(a1-3)Man
In short: as §1

[10] = biological target: Man(a1-2)Man(a1-3)[Man(a1-2)Man(a1-6)]Man
In short: as §1

[11] = biological target: Man(a1-2)Man(a1-3)[Man(a1-2)Man(a1-6)]Man(a1-6)[Man(a1-2)Man(a1-2)Man(a1-3)]Man
In short: as §1

[12] = biological target: Man(a1-2)Man(a1-3)[Man(a1-2)Man(a1-6)]Man(a1-6)[Man(a1-2)Man(a1-2)Man(a1-3)]Man(b1-4)GlcNAc(b1-4)GlcNAc
In short: as §1

[13] = biological target: Man(a1-2)Man(a1-3)[Man(a1-6)]Man(a1-6)[Man(a1-2)Man(a1-3)]Man(b1-4)GlcNAc(b1-4)GlcNAc
In short: as §1

[14] = biological target: Man(a1-2)Man(a1-6)[Man(a1-3)]Man(a1-6)[Man(a1-2)Man(a1-2)Man(a1-3)]Man
In short: as §1

[15] = biological target: Man(a1-2)Man(a1-6)[Man(a1-3)]Man(a1-6)[Man(a1-2)Man(a1-2)Man(a1-3)]Man(b1-4)GlcNAc(b1-4)GlcNAc
In short: as §1

Man(a1-3)[Man(a1-6)]Man = biological target: Man(a1-3)[Man(a1-6)]Man
In short: as §1

[16] = biological target: Man(a1-3)[Man(a1-6)]Man(a1-6)[Man(a1-2)Man(a1-3)]Man(b1-4)GlcNAc(b1-4)GlcNAc
In short: as §1

[17] = biological target: Man(a1-3)[Man(a1-6)]Man(a1-6)[Man(a1-3)]Man
In short: as §1

[18] = biological target: Man(a1-3)[Man(a1-6)]Man(a1-6)[Man(a1-3)]Man(b1-4)GlcNAc(b1-4)GlcNAc
In short: as §1

[19] = biological target: Man(a1-3)[Man(a1-6)]Man(b1-4)GlcNAc(b1-4)GlcNAc
In short: as §1

Man(a1-6)Man = biological target: Man(a1-6)Man
In short: as §1

Man(b1-4)GlcNAc = biological target: Man(b1-4)GlcNAc
In short: as §1

Neu5Ac(a2-3)Gal = biological target: Neu5Ac(a2-3)Gal
In short: as §1

[20] = biological target: Neu5Ac(a2-3)Gal(b1-3)GalNAc
In short: as §1

[21] = biological target: Neu5Ac(a2-3)Gal(b1-3)GalNAc(b1-3)Gal(a1-4)Gal(b1-4)Glc
In short: as §1

[22] = biological target: Neu5Ac(a2-3)Gal(b1-3)GalNAc(b1-4)[Neu5Ac(a2-3)]Gal(b1-4)Glc
In short: as §1

[23] = biological target: Neu5Ac(a2-3)Gal(b1-3)GalNAc6S
In short: as §1

[24] = biological target: Neu5Ac(a2-3)Gal(b1-3)GlcNAc
In short: as §1

[25] = biological target: Neu5Ac(a2-3)Gal(b1-3)GlcNAc(b1-2)Man(a1-3)[Neu5Ac(a2-3)Gal(b1-3)GlcNAc(b1-2)Man(a1-6)]Man(b1-4)GlcNAc(b1-4)GlcNAc
In short: as §1

B1: PEB4 (Campylobacter jejuni), A1VYV6 (protein)
chain: MKKFSLVAAALIAGVALNVNAATVATVNGKSISDAEVSEFFAPMLRGQDFKTLPDNQKKALIQQYIMQDLILQDAKKQNLEKDPLYTKELDRAKDAILVNVYQEKILNTIKIDAAKVKAFYDQNKDKYVKPARVQAKHILVATEKEAKDIINELKGLKGKELDAKFSELAKEKSIDPGSKNQGGELGWFDQSTMVKPFTDAAFALKNGTITTTPVKTNFGYHVILKENSQAKGQIKFDEVKQGIENGLKFEEFKKVINQKGQDLLNSAKVEYK
In the case of B1, the “glycan array binding signal (z-score)” value (GlcNAc(b1-4)GlcNAc) is reported as -0.48, the “glycan array binding signal (z-score)” value [1] is reported as -0.441 and the “glycan array binding signal (z-score)” value [2] is reported as -1.65. For the same binder, the “glycan array binding signal (z-score)” value [3] was -1.13, the “glycan array binding signal (z-score)” value [4] was -0.279 and the “glycan array binding signal (z-score)” value [5] was 0.846. The “glycan array binding signal (z-score)” value (GlcNAc(b1-6)GalNAc) was -0.166, the “glycan array binding signal (z-score)” value (GlcNAc3Prop(b1-4)GlcNAc) was -0.606 and the “glycan array binding signal (z-score)” value [6] was -0.661. The “glycan array binding signal (z-score)” value (Kdn(a2-3)Gal(b1-3)GalNAc) was 0.086, the “glycan array binding signal (z-score)” value (Kdn(a2-3)Gal(b1-3)GlcNAc) was -0.453 and the “glycan array binding signal (z-score)” value (Kdn(a2-3)Gal(b1-4)Glc) was 0.486. The “glycan array binding signal (z-score)” value (Kdn(a2-3)Gal(b1-4)GlcNAc) was -0.423, the “glycan array binding signal (z-score)” value [7] was -1.08 and the “glycan array binding signal (z-score)” value (Kdn(a2-6)Gal(b1-4)GlcNAc) was -0.028. The “glycan array binding signal (z-score)” value [8] was 2.37, the “glycan array binding signal (z-score)” value [9] was -0.758 and the “glycan array binding signal (z-score)” value (Man(a1-2)Man(a1-3)Man) was 1.6. The “glycan array binding signal (z-score)” value [10] was -0.015, the “glycan array binding signal (z-score)” value [11] was -0.604 and the “glycan array binding signal (z-score)” value [12] was -0.404. For the same binder, the “glycan array binding signal (z-score)” value [13] was 0.333, the “glycan array binding signal (z-score)” value [14] was 0.888 and the “glycan array binding signal (z-score)” value [15] was 0.969. For the same binder, the “glycan array binding signal (z-score)” value (Man(a1-3)[Man(a1-6)]Man) was 0.078, the “glycan array binding signal (z-score)” value [16] was 0.307 and the “glycan array binding signal (z-score)” value [17] was 0.141. The “glycan array binding signal (z-score)” value [18] was -0.553, the “glycan array binding signal (z-score)” value [19] was -0.217 and the “glycan array binding signal (z-score)” value (Man(a1-6)Man) was 1.64. For the same binder, the “glycan array binding signal (z-score)” value (Man(b1-4)GlcNAc) was 0.622, the “glycan array binding signal (z-score)” value (Neu5Ac(a2-3)Gal) was -0.575 and the “glycan array binding signal (z-score)” value [20] was -0.816. The “glycan array binding signal (z-score)” value [21] was 0.791, the “glycan array binding signal (z-score)” value [22] was 2.36 and the “glycan array binding signal (z-score)” value [23] was -0.879. For the same binder, the “glycan array binding signal (z-score)” value [24] was 0.33 and the “glycan array binding signal (z-score)” value [25] was -1.03.

Source: the supplement of paper PMC8728848
